PubChem BioAssay AID1224830 | NIAID – 2016
Assay: 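Regulators of TLR4 signalling towards TNF-alpha in macrophage-like cells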 (primary screen). System: human THP-1 monocytic leukaemia cells, TNF dual-luciferase reporter clone, PMA-differentiated to macrophage-like cells. Reagents: siRNA pool against human genes, 50 nM. Time to read-out: LPS for 4 h, given about 3 days after siRNA transfection. Treatment: bacterial LPS (TLR4 ligand), 10 ng/ml. Measured: 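Ratio of firefly to renilla light, scaled to the plate median and expressed as a robust z-score per replicate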. Reading the numbers: TNF reporter robust z-score: higher = stronger TNF reporter response to LPS. Rule for the call: 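a well is active when its z-score exceeds 2.8 or falls below -1.5; control wells carry no call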.
This is a random part of about 18,000 deposited reagents. Of all reagents, about 2,900 (16%) were called active. 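Calls are made per well; low scores hint the gene aids the LPS response, high scores that it dampens it.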 Unmarked entries are inactive. Repeated entries: four replicate wells of each siRNA pool.

Silencing of ITIH5 gave: TNF reporter robust z-score 3.14 (active). Against ITIH5, the entry reads TNF reporter robust z-score 0.91. Silencing of ITIH5 gave: TNF reporter robust z-score 0.2. ITIH5 gave TNF reporter robust z-score 4.22 (active). OAF scored TNF reporter robust z-score 0.05. For OAF, the values are TNF reporter robust z-score -0.13.

Silencing of OAF resulted in: TNF reporter robust z-score -0.47. Depletion of OAF came out at: TNF reporter robust z-score 0.13. SH2D4B showed TNF reporter robust z-score 0.04. SH2D4B showed TNF reporter robust z-score -0.01. Depletion of SH2D4B came out at: TNF reporter robust z-score 0.33. Against CNOT2, the entry reads TNF reporter robust z-score 1.8.

For CNOT2 the deposit lists TNF reporter robust z-score 0.49. With knock-down of CNOT2 the results were TNF reporter robust z-score 0.99. For CNOT2, the entry reads TNF reporter robust z-score 2.19. For ANXA8L1 the deposit lists TNF reporter robust z-score -1.22. ANXA8L1 scored TNF reporter robust z-score 0.58. For ANXA8L1, the entry reads TNF reporter robust z-score -1.24.

Against ANXA8L1, the entry reads TNF reporter robust z-score -1.07.

Targets listed so far whose gene name begins with S or s (3):
SH2D4B → TNF reporter robust z-score = 0.04
SH2D4B → TNF reporter robust z-score = -0.01
SH2D4B → TNF reporter robust z-score = 0.33

Further results:
Knock-down of CCND3 resulted in: TNF reporter robust z-score -1.89 (active). Against CCND3, the values are TNF reporter robust z-score -1.3. After knock-down of CCND3, the screen gave TNF reporter robust z-score -1.63 (active). Silencing of CCND3 gave: TNF reporter robust z-score -1.55 (active). HADH gave TNF reporter robust z-score -0.35. Knock-down of HADH resulted in: TNF reporter robust z-score 0.45.

HADH scored TNF reporter robust z-score -0.06. Against HADH the deposit lists TNF reporter robust z-score 0.52. ADGRB3 scored TNF reporter robust z-score -1.52 (active). With knock-down of ADGRB3, the record shows TNF reporter robust z-score -1.37. ADGRB3 scored TNF reporter robust z-score -1.38. ADGRB3 scored TNF reporter robust z-score -1.3.

Silencing of ACVR1B came out at: TNF reporter robust z-score -0.24. Silencing of ACVR1B came out at: TNF reporter robust z-score 0.13. With knock-down of ACVR1B, the screen gave TNF reporter robust z-score -0.81. Against ACVR1B the deposit lists TNF reporter robust z-score 0.17. After knock-down of BORCS7, the record shows TNF reporter robust z-score 0.15. After knock-down of BORCS7, the screen gave TNF reporter robust z-score 0.87.

Knock-down of BORCS7 gave: TNF reporter robust z-score 0.78. After knock-down of BORCS7, the record shows TNF reporter robust z-score 1.91. After knock-down of C11orf58, the record shows TNF reporter robust z-score 0.45. After knock-down of C11orf58, the screen gave TNF reporter robust z-score 2.5. C11orf58 gave TNF reporter robust z-score 1.08. After knock-down of C11orf58, the screen gave TNF reporter robust z-score 1.09.

With knock-down of ATP6V1D the results were TNF reporter robust z-score -0.41. Depletion of ATP6V1D came out at: TNF reporter robust z-score 1.03. ATP6V1D scored TNF reporter robust z-score 0.25. For ATP6V1D the deposit lists TNF reporter robust z-score 1.38.
